Earlier results as cited in patent US20110268774A1, “PREPARATION OF STEM CELLS WITH REPROGRAMMED CELL SIGNALLING, A METHOD OF PRODUCING THE PREPARATION AND A METHOD OF USE THEREOF” (priority 2008, published 2011).
Where two headings read alike, the source gives them in different places. At least one compound was matched to its structure with a doubt left.

Tested on: Pten gene
Conditions: leucosis

CO[C@H]1C[C@@H]2CC[C@@H](C)[C@@](O)(O2)C(=O)C(=O)N2CCCC[C@H]2C(=O)O[C@H]([C@H](C)C[C@@H]2CC[C@@H](O)[C@H](OC)C2)CC(=O)[C@H](C)/C=C(\C)[C@@H](O)[C@@H](OC)C(=O)[C@H](C)C[C@H](C)/C=C/C=C/C=C/1C [Rapamycin]
CSC growth: Suppresses CSC | normal SC growth: stimulates | CSC growth (listed as Rapamicin): suppress growth | normal SC growth (listed as Rapamicin): stimulate growth
